This note sets out measurements from article doi:10.1101/2020.05.17.100339.

By UniProt entry, the sequences of proteins in these tests, tags left out. Where a name states a change or a piece, a line headed by the entry shows the natural chain unless it says otherwise.
UniProt Q8CJG0: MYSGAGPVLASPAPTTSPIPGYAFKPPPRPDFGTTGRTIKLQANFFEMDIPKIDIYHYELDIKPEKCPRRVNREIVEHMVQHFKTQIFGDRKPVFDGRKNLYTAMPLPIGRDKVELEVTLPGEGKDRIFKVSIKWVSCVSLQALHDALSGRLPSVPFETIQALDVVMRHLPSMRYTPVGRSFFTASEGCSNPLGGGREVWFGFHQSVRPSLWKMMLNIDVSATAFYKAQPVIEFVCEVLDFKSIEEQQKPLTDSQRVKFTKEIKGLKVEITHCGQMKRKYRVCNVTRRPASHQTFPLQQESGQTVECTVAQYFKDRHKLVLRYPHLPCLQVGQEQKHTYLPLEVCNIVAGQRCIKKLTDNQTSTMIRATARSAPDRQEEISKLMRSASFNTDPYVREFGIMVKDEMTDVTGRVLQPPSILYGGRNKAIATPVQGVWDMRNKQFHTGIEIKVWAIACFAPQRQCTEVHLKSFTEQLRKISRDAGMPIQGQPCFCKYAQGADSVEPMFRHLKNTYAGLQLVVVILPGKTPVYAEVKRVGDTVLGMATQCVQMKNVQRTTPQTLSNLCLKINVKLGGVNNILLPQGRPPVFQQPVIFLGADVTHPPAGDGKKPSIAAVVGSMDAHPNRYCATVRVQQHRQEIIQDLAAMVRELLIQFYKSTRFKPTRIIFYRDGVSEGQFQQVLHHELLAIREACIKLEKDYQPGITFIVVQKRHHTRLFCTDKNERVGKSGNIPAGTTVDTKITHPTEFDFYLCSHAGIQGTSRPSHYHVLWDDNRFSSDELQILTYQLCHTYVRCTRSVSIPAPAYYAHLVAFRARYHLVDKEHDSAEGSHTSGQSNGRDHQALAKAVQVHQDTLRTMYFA
UniProt Q3UHK8: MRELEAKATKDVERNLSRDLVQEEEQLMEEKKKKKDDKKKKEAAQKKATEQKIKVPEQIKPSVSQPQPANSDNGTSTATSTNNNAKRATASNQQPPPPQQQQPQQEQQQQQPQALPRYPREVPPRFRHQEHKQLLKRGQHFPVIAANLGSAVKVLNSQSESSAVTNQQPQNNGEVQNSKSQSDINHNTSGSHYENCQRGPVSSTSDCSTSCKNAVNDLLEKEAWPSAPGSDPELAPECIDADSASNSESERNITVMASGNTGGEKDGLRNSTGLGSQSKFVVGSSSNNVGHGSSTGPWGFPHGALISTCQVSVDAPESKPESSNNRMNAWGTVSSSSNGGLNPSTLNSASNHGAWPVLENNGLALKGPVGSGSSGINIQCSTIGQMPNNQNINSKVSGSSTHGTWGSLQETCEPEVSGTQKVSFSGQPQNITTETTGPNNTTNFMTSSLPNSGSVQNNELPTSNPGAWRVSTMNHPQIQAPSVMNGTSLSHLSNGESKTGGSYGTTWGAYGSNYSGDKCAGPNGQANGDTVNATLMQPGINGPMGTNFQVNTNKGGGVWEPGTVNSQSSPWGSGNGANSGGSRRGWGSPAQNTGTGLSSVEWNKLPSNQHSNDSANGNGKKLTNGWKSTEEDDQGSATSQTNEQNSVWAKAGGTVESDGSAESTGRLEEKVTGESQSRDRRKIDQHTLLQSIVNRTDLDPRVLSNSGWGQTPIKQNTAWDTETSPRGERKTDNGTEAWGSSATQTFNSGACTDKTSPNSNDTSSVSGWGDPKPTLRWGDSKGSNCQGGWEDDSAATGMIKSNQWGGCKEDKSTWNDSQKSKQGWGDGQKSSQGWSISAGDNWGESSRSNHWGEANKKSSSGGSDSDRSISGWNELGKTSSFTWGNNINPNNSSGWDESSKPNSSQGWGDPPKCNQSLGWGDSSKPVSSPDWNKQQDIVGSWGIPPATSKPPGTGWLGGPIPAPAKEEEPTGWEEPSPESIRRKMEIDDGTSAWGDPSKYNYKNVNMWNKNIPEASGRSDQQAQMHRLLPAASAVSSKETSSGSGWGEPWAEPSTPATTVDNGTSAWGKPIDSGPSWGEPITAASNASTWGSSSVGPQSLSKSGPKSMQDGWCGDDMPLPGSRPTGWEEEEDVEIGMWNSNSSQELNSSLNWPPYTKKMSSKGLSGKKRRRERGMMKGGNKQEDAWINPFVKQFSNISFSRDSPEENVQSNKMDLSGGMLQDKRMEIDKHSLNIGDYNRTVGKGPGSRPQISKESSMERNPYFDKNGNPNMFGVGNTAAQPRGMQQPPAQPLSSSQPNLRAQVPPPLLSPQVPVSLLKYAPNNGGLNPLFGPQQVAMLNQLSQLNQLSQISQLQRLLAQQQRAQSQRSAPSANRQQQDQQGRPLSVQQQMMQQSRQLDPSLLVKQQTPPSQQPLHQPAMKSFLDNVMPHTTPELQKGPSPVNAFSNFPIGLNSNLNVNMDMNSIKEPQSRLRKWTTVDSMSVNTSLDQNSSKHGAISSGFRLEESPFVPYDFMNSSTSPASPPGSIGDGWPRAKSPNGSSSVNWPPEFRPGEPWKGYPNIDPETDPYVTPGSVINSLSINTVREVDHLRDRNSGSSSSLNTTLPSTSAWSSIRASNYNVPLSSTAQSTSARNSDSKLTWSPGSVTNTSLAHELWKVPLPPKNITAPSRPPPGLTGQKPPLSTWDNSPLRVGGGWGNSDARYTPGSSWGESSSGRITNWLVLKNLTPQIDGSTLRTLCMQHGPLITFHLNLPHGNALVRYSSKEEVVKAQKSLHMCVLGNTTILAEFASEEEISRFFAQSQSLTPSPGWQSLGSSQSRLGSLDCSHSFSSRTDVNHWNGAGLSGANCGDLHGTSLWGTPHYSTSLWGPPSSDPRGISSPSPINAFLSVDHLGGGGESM

Results are given in words; binding and its absence hold for the method and conditions named. Binding seen in cells or lysates may run through a third protein.

In the assay the target is Argonaute 2 (Ago2) (mouse (endogenous in OT-I CD8+ T cells)) (UniProt Q8CJG0). Nature of the assay: co-IP.

Take “GW182 (TNRC6A), longer isoform (from UniProt Q3UHK8)”: the binding entry was “no binding”.
